Paper PMC7988490, “Molecular insights into replication initiation in a multipartite genome harboring bacterium Deinococcus radiodurans” (The Journal of Biological Chemistry, 2020)

Assays:
[1] = target: T1, drDnaB (DnaB) (Deinococcus radiodurans R1 (ATCC13939)) (UniProt Q9RWW6); test: EMSA; conditions: nonspecific, EMSA: 50 mM Tris-HCl pH 8.0, 75 mM KCl, 5 mM MgSO4, 0.1 mM DTT, ~30 nM 32P-DNA, 37 C 15 min, recombinant protein, protein details: N-terminal 6xHis (pET28a), label: 32P 5' end, probe letters rebuilt from the primers and the genome
T1 sequence (looked up, limits assumed): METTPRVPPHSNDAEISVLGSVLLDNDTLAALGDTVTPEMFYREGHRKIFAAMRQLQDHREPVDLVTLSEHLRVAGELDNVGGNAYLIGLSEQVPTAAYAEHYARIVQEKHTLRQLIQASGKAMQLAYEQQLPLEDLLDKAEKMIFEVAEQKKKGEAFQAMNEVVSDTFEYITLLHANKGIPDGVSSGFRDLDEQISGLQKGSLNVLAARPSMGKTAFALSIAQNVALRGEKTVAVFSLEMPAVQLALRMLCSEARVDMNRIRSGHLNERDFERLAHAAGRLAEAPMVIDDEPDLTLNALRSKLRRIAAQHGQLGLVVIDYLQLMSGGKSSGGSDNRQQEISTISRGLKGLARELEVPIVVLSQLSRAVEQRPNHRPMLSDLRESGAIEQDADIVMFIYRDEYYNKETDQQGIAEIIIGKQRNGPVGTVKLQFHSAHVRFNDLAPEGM

[2] = target: T2, DnaAΔCt (drDnaA without domain IV) (Deinococcus radiodurans R1 (ATCC13939)) (UniProt Q9RYE7); test: EMSA; conditions: tested with and without ATP; EMSA: 50 mM Tris-HCl pH 8.0, 75 mM KCl, 5 mM MgSO4, 0.1 mM DTT, +/- 1 mM ATP, ~30 nM 32P-DNA, 37 C 15 min; recombinant protein; protein details: N-terminal 6xHis (pET28a); label: 32P 5' end; probe letters rebuilt from the primers and the genome
T2 sequence (looked up, limits assumed): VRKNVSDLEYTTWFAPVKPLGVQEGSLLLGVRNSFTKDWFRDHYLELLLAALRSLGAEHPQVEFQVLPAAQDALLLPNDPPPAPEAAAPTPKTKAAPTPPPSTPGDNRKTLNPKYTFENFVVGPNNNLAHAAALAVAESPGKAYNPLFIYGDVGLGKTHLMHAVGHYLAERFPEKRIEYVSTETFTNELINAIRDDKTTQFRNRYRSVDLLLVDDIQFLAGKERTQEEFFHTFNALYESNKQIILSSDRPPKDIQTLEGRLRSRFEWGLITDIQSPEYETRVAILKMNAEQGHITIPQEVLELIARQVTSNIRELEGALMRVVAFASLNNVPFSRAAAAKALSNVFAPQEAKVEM

Sequence: GCGAGCTCCCGTTCCAAATGGCGGTGAAACTTTTCACTTTCTGTGGAAAAACCTGTGGATATCCTGTGGATAAGTGCCAAAATCCTGTGGATAAAATTGTGGATAACTTGCCCCTAAAAATGCCCTGTGGATAACCCCCCAAGTTATCCACAGCTTATCCATCAGGTTTTCGGGGTTATCCACACCCCCTCTGTGGAAAACTTTTGTCCTCTGGGACGGCTTCAAGGTGAGTTTTCCACAGTATCCACAGGCCCTACTACTGCTACTACTGTTTTTATTTTTTAAGAAGAACAGTTAACAGATAGGCCAGGTGACCTTGGGCCTTCCACAAAGGACTCTGGAAAATTCCAAAAGGAGGTTCCGAGTTGAGATCCAACGTGAGGCGTCTCAGGACTGATCGTTCTTCAGATTCCAGACCCGAAGCTCAGAACAATTTCATGTCCAGCACGAAGTTTTCCCCAGGTTGTGGATAAGTTCTGTGGATAAGTCGGGAGTTGGCTGCAAAAACGGATCCCG (double strand) [oriCI 500 bp (13 DnaA boxes)]
- Kd ([1]; 1 mM ATP): 8.23 µM
- Kd ([1]; no ATP, +/- 1 mM ATP): 8.89 µM
- binding result [2]: no binding

For part of these data: Negatives hold for the conditions tested. Where a protein sequence is shown, tags need not be part of it. For part of these data: For at least one entry, the source does not settle the construct or the ends of the probe.
